According to patent US20250101100A1:
Results are given in words; binding and its absence hold for the method and conditions named. Some results given as binding are weak or reduced against the parent protein; the word gives no strength.

Chains of the proteins cited; added tags and fusions are not shown. Lines headed by an entry give the natural chain unless they say otherwise; changes in a name come on top.
UniProt P26715: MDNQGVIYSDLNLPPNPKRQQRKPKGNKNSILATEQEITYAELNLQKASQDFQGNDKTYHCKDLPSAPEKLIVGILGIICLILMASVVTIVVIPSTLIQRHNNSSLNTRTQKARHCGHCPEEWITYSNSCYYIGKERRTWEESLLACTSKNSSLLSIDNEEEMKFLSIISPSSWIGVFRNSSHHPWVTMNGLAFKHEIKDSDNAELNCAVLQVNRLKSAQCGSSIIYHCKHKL
UniProt P26717: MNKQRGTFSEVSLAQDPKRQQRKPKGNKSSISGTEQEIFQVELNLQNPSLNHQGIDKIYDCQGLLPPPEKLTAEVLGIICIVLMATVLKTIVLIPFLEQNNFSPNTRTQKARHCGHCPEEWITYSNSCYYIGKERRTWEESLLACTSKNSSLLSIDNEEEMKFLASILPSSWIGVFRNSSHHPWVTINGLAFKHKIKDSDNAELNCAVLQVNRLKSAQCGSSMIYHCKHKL

Tests used:
[1] = molecular target: human NKG2A on cells (human) (UniProt P26715); experiment: flow cytometry on CHO cells expressing human NKG2A
[2] = molecular target: human NKG2A on cells (human) (UniProt P26715); experiment: flow cytometry, HLA-E pentamer blocking on CHO cells expressing human NKG2A
[3] = molecular target: human NKG2C on CHO cells (human) (UniProt P26717); experiment: flow cytometry, binding to CHO cells expressing human NKG2C, anti-human IgG-PE

binding [1]: binds | binding [2]: binds | binding [3]: binds
B1: 11H9.A1 antibody (antibody, human IgG1, kappa, V domains shown)
VH: EVQLVESGGGLVKPGGSLRLSCAASGFTFSSYSMNWVRQAPGKGLEWVSSISSSSSYIYYADSVKGRFTISRDNAKNSLYLQMNSLRAEDTAVYYCARLLWFGEIFDYWGQGTLVTVSS
VL: AIQLTQSPSSLSASVGDRVTITCRASQGISSALAWYQQKPGKAPKLLIYDASSLKSGVPSRFSGSGSGTDFTLTISSLQPEDFATYYCQQFNSYPITFGQGTRLEIKR
